Experimental data taken from article PMC7311514.
Like-named read-outs stand apart in the source and are kept apart here. These are yes or no findings as the source states them, for the method shown. In cells and extracts the contact can be indirect. Here binding means that the protein was enriched with, or labelled near, the bait; the list need not be complete. For some assays here: A no says only that the protein was not detected with the bait.

The chains behind the UniProt entries cited, without tags or fusion partners. Residues count along the entry.
UniProt P35968, residues 20-1356: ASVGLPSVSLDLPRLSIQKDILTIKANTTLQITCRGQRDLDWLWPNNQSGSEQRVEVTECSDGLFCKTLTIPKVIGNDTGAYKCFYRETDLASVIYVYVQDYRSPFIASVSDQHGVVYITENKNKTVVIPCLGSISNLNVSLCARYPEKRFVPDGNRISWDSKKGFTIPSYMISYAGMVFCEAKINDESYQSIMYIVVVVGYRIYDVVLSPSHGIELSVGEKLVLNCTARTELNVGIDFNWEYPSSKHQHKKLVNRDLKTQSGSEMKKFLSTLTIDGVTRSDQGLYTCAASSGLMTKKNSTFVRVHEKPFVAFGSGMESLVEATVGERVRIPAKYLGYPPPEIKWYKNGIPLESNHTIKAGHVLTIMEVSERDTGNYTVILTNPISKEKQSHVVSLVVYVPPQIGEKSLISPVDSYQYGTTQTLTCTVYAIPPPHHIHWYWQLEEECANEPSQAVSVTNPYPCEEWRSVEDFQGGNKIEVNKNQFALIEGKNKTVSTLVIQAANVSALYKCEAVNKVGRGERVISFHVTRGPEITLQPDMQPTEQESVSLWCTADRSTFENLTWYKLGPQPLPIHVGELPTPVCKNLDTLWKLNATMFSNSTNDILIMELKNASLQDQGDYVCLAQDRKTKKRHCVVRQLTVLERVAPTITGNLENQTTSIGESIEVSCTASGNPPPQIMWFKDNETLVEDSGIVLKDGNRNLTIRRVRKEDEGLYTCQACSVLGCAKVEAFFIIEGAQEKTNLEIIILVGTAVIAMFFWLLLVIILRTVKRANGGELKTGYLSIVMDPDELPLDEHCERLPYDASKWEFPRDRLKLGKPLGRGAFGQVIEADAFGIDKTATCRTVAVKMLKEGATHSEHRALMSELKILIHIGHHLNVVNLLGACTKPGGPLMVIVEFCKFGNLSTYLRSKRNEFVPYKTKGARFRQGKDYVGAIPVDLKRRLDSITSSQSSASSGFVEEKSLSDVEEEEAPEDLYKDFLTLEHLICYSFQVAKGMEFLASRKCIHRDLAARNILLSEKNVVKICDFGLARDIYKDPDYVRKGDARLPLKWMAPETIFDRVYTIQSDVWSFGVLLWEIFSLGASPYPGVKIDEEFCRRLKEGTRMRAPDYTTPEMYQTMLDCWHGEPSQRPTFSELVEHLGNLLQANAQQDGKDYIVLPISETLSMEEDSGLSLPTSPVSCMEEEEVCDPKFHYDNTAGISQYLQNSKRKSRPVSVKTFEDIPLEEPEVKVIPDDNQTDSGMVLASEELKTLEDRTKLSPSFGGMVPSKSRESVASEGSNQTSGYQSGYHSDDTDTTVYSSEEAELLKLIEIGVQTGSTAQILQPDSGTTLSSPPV
UniProt Q9UKB1: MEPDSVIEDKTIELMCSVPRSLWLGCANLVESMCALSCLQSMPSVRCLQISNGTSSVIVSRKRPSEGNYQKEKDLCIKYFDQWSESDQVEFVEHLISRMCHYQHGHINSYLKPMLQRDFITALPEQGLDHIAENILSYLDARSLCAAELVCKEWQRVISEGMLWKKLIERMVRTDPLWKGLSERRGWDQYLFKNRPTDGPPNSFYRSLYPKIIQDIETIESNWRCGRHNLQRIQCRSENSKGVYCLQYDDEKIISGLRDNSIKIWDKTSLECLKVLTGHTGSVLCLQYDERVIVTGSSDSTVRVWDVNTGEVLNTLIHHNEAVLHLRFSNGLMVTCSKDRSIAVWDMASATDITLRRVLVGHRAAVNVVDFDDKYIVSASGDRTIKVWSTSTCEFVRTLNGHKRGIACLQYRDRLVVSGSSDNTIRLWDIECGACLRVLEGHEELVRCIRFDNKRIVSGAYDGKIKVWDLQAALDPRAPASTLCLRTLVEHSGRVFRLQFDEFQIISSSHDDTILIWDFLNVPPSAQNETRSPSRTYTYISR

Legend:
[1] = target: GFP-tagged VEGFR2 (vascular endothelial growth factor receptor 2) (human) (UniProt P35968); experiment: affinity purification with mass spectrometry; CiGEnC stably expressing GFP-VEGFR2 or GFP, serum-starved 1 h, stimulated with 40 ng/ml VEGF over a 30-min time course; lysis in 20 mM Tris pH7.5, 137 mM NaCl, 0.5% NP-40, 1 mM EDTA; GFP-Trap agarose beads 1 h at 4 °C; LTQ-Orbitrap Velos
[2] = target: GFP-tagged VEGFR2 (vascular endothelial growth factor receptor 2) (human) (UniProt P35968); experiment: as above; remark: listed apart in the source

| binding [1] | binding [2] | Molecule |
| --- | --- | --- |
| binds | – | ubiquitin E3 ligase β-Trcp2 (endogenous, CiGEnC) (from UniProt Q9UKB1 1-542) (enzyme) |
| – | no binding | raftlin-2 (endogenous, CiGEnC) (protein, UniProt Q52LD8 1-501) MGCGLRKLEDPDDSSPGKIFSTLKRPQVETKTEFAYEYVLLDFTLQASSNPEVIKINSILDIVTKVENYYLKGYIVGAIHPVIQPVGQRKHLPASYLYRVVLLRLKLSPKNSAAPSGQRRPRLVIEECPLTSEAQTNDAAKELIEKINVAAKRGMKFVGFISQHYSPSKFCNGTNHDGDIESMLHVRHGSDENCRSWNEGTLSGQSSESGIEEELHHESGQYQMEQNGSPTSSKSRKGEASDNKLYTVFNAFDDDSTSWAYQEGILSMKVTRKGSVISTLDADWLELTTFYYKQGLSLIDSFVFWETSKGEHLPKSLEGFFIYEEEGSGVPGSSRKGNDAIVVEQWTVIEGCEIKTDYGPLLHTLAEFGWLLTSVLPTPVLRHDSEGNLATKQIVFLQRPVMWNSAAQTPDKKASRHIKGEDKNKATSRSIGLDTTSSQPAESRHLPEECRLSPSRECWTKEGRLAQHNSFSGFSSSDNVLRELDDGQFDQEDGVTQVTCM |
